Data as given in paper PMC11772302.
No constants are given. Whether binding was seen depends on the method and setting. Binding seen in cells or lysates may run through a third protein. Some results given as binding are weak or reduced against the parent protein; the word gives no strength.

Protein sequences, listed by entry. Tags and fused reporters are not part of them. Residues count along the entry.
UniProt Q66HF1, residues 24-727: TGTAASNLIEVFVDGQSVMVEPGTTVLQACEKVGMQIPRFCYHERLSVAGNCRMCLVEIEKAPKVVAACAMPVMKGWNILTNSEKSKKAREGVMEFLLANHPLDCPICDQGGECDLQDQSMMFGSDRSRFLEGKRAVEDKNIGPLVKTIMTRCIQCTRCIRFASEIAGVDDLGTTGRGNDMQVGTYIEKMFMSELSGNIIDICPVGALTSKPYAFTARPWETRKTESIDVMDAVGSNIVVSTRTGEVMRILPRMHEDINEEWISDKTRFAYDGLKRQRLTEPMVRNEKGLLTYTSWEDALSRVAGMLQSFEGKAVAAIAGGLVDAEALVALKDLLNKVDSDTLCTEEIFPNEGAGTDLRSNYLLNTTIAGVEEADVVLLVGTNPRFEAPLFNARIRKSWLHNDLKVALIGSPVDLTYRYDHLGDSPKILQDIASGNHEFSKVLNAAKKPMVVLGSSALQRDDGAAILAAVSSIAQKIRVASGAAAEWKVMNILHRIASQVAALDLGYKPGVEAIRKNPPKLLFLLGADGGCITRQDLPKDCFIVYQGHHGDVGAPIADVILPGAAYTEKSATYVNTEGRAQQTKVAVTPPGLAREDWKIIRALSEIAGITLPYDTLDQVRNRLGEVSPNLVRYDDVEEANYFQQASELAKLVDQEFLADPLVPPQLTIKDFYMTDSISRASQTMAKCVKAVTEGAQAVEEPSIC
UniProt Q5SGE0, residues 78-1392: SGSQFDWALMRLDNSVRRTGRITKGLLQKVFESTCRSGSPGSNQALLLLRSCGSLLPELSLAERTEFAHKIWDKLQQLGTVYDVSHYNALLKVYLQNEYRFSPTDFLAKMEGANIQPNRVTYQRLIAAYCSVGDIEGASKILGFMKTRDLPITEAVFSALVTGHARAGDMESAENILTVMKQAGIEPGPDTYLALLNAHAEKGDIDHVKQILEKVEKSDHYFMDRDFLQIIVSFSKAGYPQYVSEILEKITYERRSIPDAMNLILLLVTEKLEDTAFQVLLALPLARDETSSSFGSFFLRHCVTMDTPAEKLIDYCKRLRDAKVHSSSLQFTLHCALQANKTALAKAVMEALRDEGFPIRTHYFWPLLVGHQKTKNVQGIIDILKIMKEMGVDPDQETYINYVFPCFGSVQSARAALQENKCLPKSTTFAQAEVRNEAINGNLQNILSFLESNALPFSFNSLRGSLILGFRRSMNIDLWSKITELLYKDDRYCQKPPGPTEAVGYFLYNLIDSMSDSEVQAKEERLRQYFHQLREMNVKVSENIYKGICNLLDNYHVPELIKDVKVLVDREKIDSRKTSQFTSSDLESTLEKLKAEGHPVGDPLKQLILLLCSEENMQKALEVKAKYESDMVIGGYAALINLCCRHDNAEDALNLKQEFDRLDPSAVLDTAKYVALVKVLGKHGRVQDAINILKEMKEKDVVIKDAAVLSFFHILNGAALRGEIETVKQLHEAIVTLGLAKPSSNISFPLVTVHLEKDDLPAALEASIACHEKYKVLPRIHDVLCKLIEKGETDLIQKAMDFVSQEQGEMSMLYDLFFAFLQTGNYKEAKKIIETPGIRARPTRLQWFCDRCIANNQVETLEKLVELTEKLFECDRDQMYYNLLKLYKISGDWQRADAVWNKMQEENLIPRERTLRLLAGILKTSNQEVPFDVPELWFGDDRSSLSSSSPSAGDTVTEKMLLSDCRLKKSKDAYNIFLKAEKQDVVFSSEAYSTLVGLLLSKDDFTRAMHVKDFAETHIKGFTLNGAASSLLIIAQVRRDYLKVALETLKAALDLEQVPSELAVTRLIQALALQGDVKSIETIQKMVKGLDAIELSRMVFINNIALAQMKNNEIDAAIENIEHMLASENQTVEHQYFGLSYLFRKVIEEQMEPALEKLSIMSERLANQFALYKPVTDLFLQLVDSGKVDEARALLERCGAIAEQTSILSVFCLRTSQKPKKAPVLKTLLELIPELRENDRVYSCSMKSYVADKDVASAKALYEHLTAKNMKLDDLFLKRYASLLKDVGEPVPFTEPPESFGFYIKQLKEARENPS

Columns and labels:
[1] = molecular target: NADH: ubiquinone oxidoreductase core subunit S1 (rat (endogenous in SD rat cortical neurons and SD rat tissue)) (UniProt Q66HF1); assay: co-IP; natural total protein of SD rats (sham and MCAO groups, 7 days after the operation) incubated with anti-NDUFS1 antibody overnight at 4°C, then protein A/G agarose at 4°C overnight; Western blot for LRPPRC and NDUFA11, normalised to the IP band of NDUFS1
[2] = molecular target: NADH: ubiquinone oxidoreductase core subunit S1 (rat (endogenous in SD rat cortical neurons and SD rat tissue)) (UniProt Q66HF1); assay: co-IP; natural total protein of cultured rat cortical neurons (control and OGD/R groups) incubated with anti-NDUFS1 antibody overnight at 4°C, then protein A/G agarose at 4°C overnight; Western blot for LRPPRC and NDUFA11, normalised to the IP band of NDUFS1
[3] = molecular target: NADH: ubiquinone oxidoreductase core subunit S1 (rat (endogenous in SD rat cortical neurons and SD rat tissue)) (UniProt Q66HF1); assay: co-IP; natural total protein of SD rats (sham and MCAO groups, 7 days after the operation) incubated with anti-NDUFS1 antibody overnight at 4°C, then protein A/G agarose at 4°C overnight; Western blot for LRPPRC and NDUFA11, normalised to the IP band of NDUFS1; remark: listed apart in the source

| binding [1] | binding [2] | binding [3] | Molecule |
| --- | --- | --- | --- |
| binds | binds | – | Leucine-rich pentatricopeptide repeat-containing (from UniProt Q5SGE0 78-1392) |
| – | binds | binds | NADH dehydrogenase [ubiquinone] 1 alpha subcomplex subunit 11 (protein, UniProt Q80W89 1-141) MAKRFFEAYNETPDGTQCHRKAYITTALGGLCGLISSAYSITHNPADSPLEAVARVGRFTFTAAAIGAMFGLTTCVSAQVREKPDDPLNYFIGGCAGGLTLGARTHSYGTAAIGCVYMGTAAALFKMGKLEGWELFATPKV |
